Laboratory results reported in patent US9512180B2, “Compstatin analogs” (THE REGENTS OF THE UNIVERSITY OF CALIFORNIA, priority 2012, dated 2016).
Some results were stated once for a whole list of compounds, not compound by compound. Some ranges recur; such a range may be that of the whole group of compounds. Bridge positions count the residues as written; N and C are the ends. Square brackets hold non-standard residues; d marks the D form. Peptide text beside a SMILES is read from it. Trp(1-Me) = Cn1cc(C[C@H](N)C(=O)O)c2ccccc21

Test system: Human fetal RPE cells
Assay: RPE cell-based assay: confocal analysis of deposit-associated C5b-9 (normalized to ApoE)
Settings: peptide 1 μM, 10% human complement serum, ~24 hrs; mean±S.E.M., RPE cultures of three donors
Protocol: The in vitro drusen biogenesis model was employed. Human fetal RPE cells (Advanced Bioscience Resources, Alameda, Calif.) were cultured on Millipore HA porous supports (Millipore, Cat # PIHA 01250) in Miller medium (Maminishkis et al., 2006) supplemented with 5% fetal calf serum (FCS). Cultures derived from three different donor eyes were employed. Cells were rinsed with warm, sterile PBS and the insert membrane was excised with a scalpel and cut into small (˜4 mm^2) pieces which were placed in wells of a 96-well plate. To minimize effects of inter-culture variability, samples prepared from a single membrane were utilized for each experiment. The samples were rinsed in PBS and then exposed individually to the library of compstatin family peptides at 1 μM in FCS-free Miller medium containing 10% human complement serum (Innovative Research, Cat # IPLA-CSER AB, Lot # L12402). In preliminary experiments, compstatin family Peptides I, III, VI, VII, VIII, IX, and Parent (Table 7), were tested in the RPE cell assay at 100 μM and titrated by C5b-9 ELISA over a concentration range of 0.04-130 μM. […]
Samples were imaged on an Olympus FV1000 confocal laser scanning microscope. […] The Set Threshold Color Tool was utilized to analyze each color channel separately; the threshold tool creates a boundary around the objects being measured (i.e., sub-cellular deposits) on the basis of color intensity. […]

| SMILES | deposit-associated C5b-9 (C5b-9/ApoE) relative to positive control |
| --- | --- |
| CC(=O)N[C@@H](CCCNC(=N)N)C(=O)N[C@H]1CSSC[C@@H](C(=O)N[C@H](C(N)=O)[C@@H](C)O)NC(=O)[C@H](CCCNC(=N)N)NC(=O)[C@H](Cc2c[nH]cn2)NC(=O)[C@H](C)NC(=O)CNC(=O)[C@H](Cc2c[nH]c3ccccc23)NC(=O)[C@H](CC(=O)O)NC(=O)[C@H](CCC(N)=O)NC(=O)[C@H](Cc2cn(C)c3ccccc23)NC(=O)[C@H](C(C)C)NC1=O [Peptide III, Ac- RCV meWQDWGA HRCT-NH2] (Ac-RCV[Trp(1-Me)]QDWGAHRCT-NH2; disulfide 2-12) | 15-20% |
| CC[C@H](C)[C@H](NC(=O)[C@H](CO)NC(=O)[C@H](CCCNC(=N)N)NC(C)=O)C(=O)N[C@H]1CSSC[C@@H](C(=O)N[C@H](C(N)=O)[C@@H](C)O)NC(=O)[C@H](CCCNC(=N)N)NC(=O)[C@H](Cc2c[nH]cn2)NC(=O)[C@H](C)NC(=O)CNC(=O)[C@H](Cc2c[nH]c3ccccc23)NC(=O)[C@H](CC(=O)O)NC(=O)[C@H](CCC(N)=O)NC(=O)[C@H](Cc2cn(C)c3ccccc23)NC(=O)[C@H](C(C)C)NC1=O [Peptide VI, Ac-RS-ICV meWQDWGA HRCT-NH2] | 15-20% |
